# Counter-ions that a name gives are not always drawn. The list shows a part of the results. The calls rarely recur for the same compound in another form.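 Kinases, fused to nanoluciferase, were expressed in K562 cells; luminescence was measured every 4 h from 2 to 18 h as percent of control (DMSO = 100%, positive control = 0%). A time point is decreased if signal falls significantly (2 sigma). Hits were called by the authors by a rule that is not shown; the count of time points alone does not decide it.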
# Chains of the proteins cited; added tags and fusions are not shown. Lines headed by an entry give the natural chain unless they say otherwise; changes in a name come on top.
# UniProt Q15208: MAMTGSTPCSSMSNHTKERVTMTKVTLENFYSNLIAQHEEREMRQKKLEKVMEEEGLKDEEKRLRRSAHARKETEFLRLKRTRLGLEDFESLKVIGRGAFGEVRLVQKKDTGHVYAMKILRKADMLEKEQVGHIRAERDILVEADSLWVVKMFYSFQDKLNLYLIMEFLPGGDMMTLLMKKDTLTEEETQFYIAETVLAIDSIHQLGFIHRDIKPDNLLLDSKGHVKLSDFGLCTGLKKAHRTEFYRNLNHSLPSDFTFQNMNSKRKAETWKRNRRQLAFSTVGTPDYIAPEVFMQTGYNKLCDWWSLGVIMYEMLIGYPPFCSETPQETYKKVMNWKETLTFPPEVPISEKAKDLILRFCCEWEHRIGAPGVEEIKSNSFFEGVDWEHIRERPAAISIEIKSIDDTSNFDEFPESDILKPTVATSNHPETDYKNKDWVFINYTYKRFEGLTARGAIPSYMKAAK
# Target: STK38 (UniProt Q15208)
# Experiment: number of time points (of 5) at which kinase-Nluc abundance scored as decreased, DMSO-normalised (count); higher = more persistent destabilization
# Settings: K562; 2-18 h
row,Structure (SMILES),number of time points
1,Cn1cc(-c2cc(Oc3cc(F)c(NC(=O)C4(C(=O)Nc5ccccc5)CC4)cc3F)ccn2)cn1 (2.5 µM),0
2,Nc1[nH]nc2nc(-c3ccc(NS(=O)(=O)c4cc(Cl)ccc4Cl)cc3)cnc12 (10 µM),0
3,Cc1cccc(/C=N/Nc2cc(N3CCOCC3)n3nc(-c4ccncc4)cc3n2)c1 (10 µM),0
4,CC(C)n1ncnc1-c1cn2c(n1)-c1ccc(O[C@@H](C)C(N)=O)cc1OCC2 (10 µM),0
5,COC(=O)[C@H](CCSC)NC(=O)c1ccc(NC[C@@H](N)CS)cc1-c1ccccc1 [FTI-277 (hydrochloride)] (10 µM),0
6,O=C(Nc1cccc(-c2nc(-c3ccc(NC(=O)c4cccnc4)cc3Cl)no2)c1)Nc1ccc(NC(=O)C2CC2)c(C(F)(F)F)c1 (2.5 µM),0
7,CN1CCN(c2cc(-c3ccncc3)c(-c3ccc4ccccc4c3)nn2)CC1 (10 µM),0
8,CNC(=O)c1ccc2c(c1)ncn2-c1ccc(CC(=O)OC(C)(C)C)cc1 (10 µM),0
9,O=C(O)[C@H]1O[C@@H](Oc2cc3oc(-c4ccc(O)cc4)cc(=O)c3c(O)c2O)[C@H](O)[C@@H](O)[C@@H]1O [Scutellarin] (10 µM),0
10,Cc1nn(C)cc1-c1nc2c(N3CCN(Cc4ccc(Cl)cc4)CC3)c(Cl)cnc2[nH]1 (10 µM),0
11,Cc1cc(CSc2ccccc2C(=O)NCCNc2ccc(C(F)(F)F)cc2[N+](=O)[O-])on1 (10 µM),0
12,NC(=O)c1cnc(-c2ccc(C3(N)CCC3)cc2)c(-c2ccccc2)c1 (10 µM),0
13,CCCCCC(=O)N[C@@H](Cc1ccc(O)cc1)C(=O)OC (10 µM),0
14,CNC(=O)c1ccc2c(C(=Nc3cccc(CN(C)C)c3)c3ccccc3)c(O)[nH]c2c1 [MEK inhibitor] (10 µM),0
15,COc1cc2ncnc(Nc3cccc(I)c3)c2cc1OC (2.5 µM),0
16,COc1c(O)cc2oc(-c3ccc(O)cc3)cc(=O)c2c1O [Hispidulin] (10 µM),0
17,CC(C)=CC[C@@H](O)C1=CC(=O)c2c(O)ccc(O)c2C1=O [Shikonin] (10 µM),0
18,N[C@@H]1CCCN(c2c(/C=C3\SC(=O)NC3=O)cccc2-c2ccccc2)C1 (10 µM),0
19,NC(=O)c1ccc(N(C(N)=O)c2c(F)cccc2F)nc1-c1ccc(F)cc1F (10 µM),0

# Laid out differently: entries from further up.
row | Structure (SMILES) | number of time points
2 | Nc1[nH]nc2nc(-c3ccc(NS(=O)(=O)c4cc(Cl)ccc4Cl)cc3)cnc12 (10 µM) | 0
5 | COC(=O)[C@H](CCSC)NC(=O)c1ccc(NC[C@@H](N)CS)cc1-c1ccccc1 [FTI-277 (hydrochloride)] (10 µM) | 0
6 | O=C(Nc1cccc(-c2nc(-c3ccc(NC(=O)c4cccnc4)cc3Cl)no2)c1)Nc1ccc(NC(=O)C2CC2)c(C(F)(F)F)c1 (2.5 µM) | 0
7 | CN1CCN(c2cc(-c3ccncc3)c(-c3ccc4ccccc4c3)nn2)CC1 (10 µM) | 0
8 | CNC(=O)c1ccc2c(c1)ncn2-c1ccc(CC(=O)OC(C)(C)C)cc1 (10 µM) | 0
9 | O=C(O)[C@H]1O[C@@H](Oc2cc3oc(-c4ccc(O)cc4)cc(=O)c3c(O)c2O)[C@H](O)[C@@H](O)[C@@H]1O [Scutellarin] (10 µM) | 0
12 | NC(=O)c1cnc(-c2ccc(C3(N)CCC3)cc2)c(-c2ccccc2)c1 (10 µM) | 0
13 | CCCCCC(=O)N[C@@H](Cc1ccc(O)cc1)C(=O)OC (10 µM) | 0
14 | CNC(=O)c1ccc2c(C(=Nc3cccc(CN(C)C)c3)c3ccccc3)c(O)[nH]c2c1 [MEK inhibitor] (10 µM) | 0
15 | COc1cc2ncnc(Nc3cccc(I)c3)c2cc1OC (2.5 µM) | 0
18 | N[C@@H]1CCCN(c2c(/C=C3\SC(=O)NC3=O)cccc2-c2ccccc2)C1 (10 µM) | 0

# Next results.

row,Structure (SMILES),number of time points
1,NC1(C(=O)NCCCn2cc(-c3ccc(OC(F)(F)F)cc3)c3cc(CN4CCN(Cc5c(Cl)cccc5Cl)CC4)ccc32)CCNCC1 (2.5 µM),0
2,Cc1cc(O)c2c(c1)C(=O)c1cccc(O)c1C2=O [Chrysophanol] (2 µM),0
3,COc1cc2nccc(Oc3ccc(NC(=O)c4cn(C(C)C)c(=O)n(-c5ccc(F)cc5)c4=O)cc3F)c2cc1OC (0.5 µM),0
4,O=C(Nc1cccnc1)c1cc(-c2ccnc(F)c2)ccc1OCc1ccccc1 (10 µM),0
5,NC[C@@](O)(c1ccc(Cl)cc1)c1ccc(-c2cn[nH]c2)cc1 (10 µM),0
6,O=C1NC(=O)/C(=C\c2c[nH]c(=O)c(-c3ccc(N4CCNCC4)nc3)c2)S1 [Protein kinase inhibitors 1 hydrochloride] (10 µM),0
7,C[C@@H](Nc1ncnc2[nH]c(-c3ccc(O)cc3)cc12)c1ccccc1 (2.5 µM),0
8,Cc1ccc(C(=O)NC2CC2)cc1-n1ncc(C(=O)c2cccc(C#N)c2)c1N [Acumapimod] (10 µM),0
9,C[C@H]1O[C@@H](O[C@H]2CC[C@@]3(C)[C@@H](CC[C@]4(C)[C@@H]3C=C[C@]35OC[C@@]6(CCC(C)(C)C[C@H]63)[C@H](O)C[C@]54C)[C@]2(C)CO)[C@H](O)[C@@H](O[C@@H]2O[C@H](CO)[C@@H](O)[C@H](O)[C@H]2O)[C@H]1O [Saikosaponin D] (2.5 µM),0
10,N#Cc1ccc(-c2cnc3[nH]cc(NC(=O)c4cccnc4)c3c2)cc1 (10 µM),0
11,CCCCCc1ccc(/C=C/[C@H](O)[C@@H](CO)NC)cc1 [SK1-I (hydrochloride)] (10 µM),0
12,COc1ccc2c3n(c(=NC(=O)c4cccnc4)nc2c1OC)CCN3 (2 µM),0
13,CN1CCN(c2ccc(Nc3ncc4cc(C#N)c(=O)n(C5CCCC5)c4n3)cc2)CC1 (10 µM),0
14,COc1ccc(S(=O)(=O)Nc2cc(-c3c(O)ccc4ccccc34)c(O)c3ccccc23)cc1 (10 µM),0
15,CC(C)(C)Cc1[nH]nc2c1[C@@](C)(c1ccccc1)C1=C(CC(C)(C)CC1=O)N2 (10 µM),0
16,Cn1c2cc([S+](C)[O-])sc2c2cnn(Cc3cccc(N)c3)c(=O)c21 (stereo not drawn) (2.5 µM),0
17,Nc1ncc(-c2ccnc(Nc3ccncc3)n2)c(CC2CC2)n1 (10 µM),0
18,O=C(NCCN1CCOCC1)Nc1nc2ccc(Sc3nnc4ccc(-c5ccc(F)cc5)nn34)cc2s1 (10 µM),0
19,CC(C)Oc1ccc(F)c(-c2cnc(N)c(C(=O)Nc3cnccc3N3CCC[C@@H](C(=O)O)C3)n2)c1 (2 µM),0

# From the supplement of paper PMC12823440, “Inhibitors supercharge kinase turnover through native proteolytic circuits” (Nature, 2025)
